Values quoted from earlier work, collected in patent US20060189576A1, “Substituted vitamin d analogues and their therapeutic uses” (priority 2003, published 2006).

Test system: MCF-7 cells
Conditions: known superagonists; data published in J Bone Mineral Res 15 (2): 237-252 (2000); cited from earlier work

Row | Compound | Specificity ratio
1 | C=C1/C(=C\C=C2/CCC[C@]3(C)[C@@H]([C@H](C)/C=C/[C@@H](O)C4CC4)CC[C@@H]23)C[C@@H](O)C[C@@H]1O [MC 903] | 200
2 | C=C1/C(=C\C=C2/CCC[C@]3(C)[C@@H]([C@H](C)OCCC(C)(C)O)CC[C@@H]23)C[C@@H](O)C[C@@H]1O [OCT] | 330-500
